Measured values from paper doi:10.1101/490615.
Results are given in words; binding and its absence hold for the method and conditions named. In cells and extracts the contact can be indirect. Some entries that bind do so weakly or less than the wild type. Tags and fused reporters may be left off the sequences shown.

Biological target: T1, GFP-Klp10A (Drosophila) (UniProt Q960Z0)
T1 sequence: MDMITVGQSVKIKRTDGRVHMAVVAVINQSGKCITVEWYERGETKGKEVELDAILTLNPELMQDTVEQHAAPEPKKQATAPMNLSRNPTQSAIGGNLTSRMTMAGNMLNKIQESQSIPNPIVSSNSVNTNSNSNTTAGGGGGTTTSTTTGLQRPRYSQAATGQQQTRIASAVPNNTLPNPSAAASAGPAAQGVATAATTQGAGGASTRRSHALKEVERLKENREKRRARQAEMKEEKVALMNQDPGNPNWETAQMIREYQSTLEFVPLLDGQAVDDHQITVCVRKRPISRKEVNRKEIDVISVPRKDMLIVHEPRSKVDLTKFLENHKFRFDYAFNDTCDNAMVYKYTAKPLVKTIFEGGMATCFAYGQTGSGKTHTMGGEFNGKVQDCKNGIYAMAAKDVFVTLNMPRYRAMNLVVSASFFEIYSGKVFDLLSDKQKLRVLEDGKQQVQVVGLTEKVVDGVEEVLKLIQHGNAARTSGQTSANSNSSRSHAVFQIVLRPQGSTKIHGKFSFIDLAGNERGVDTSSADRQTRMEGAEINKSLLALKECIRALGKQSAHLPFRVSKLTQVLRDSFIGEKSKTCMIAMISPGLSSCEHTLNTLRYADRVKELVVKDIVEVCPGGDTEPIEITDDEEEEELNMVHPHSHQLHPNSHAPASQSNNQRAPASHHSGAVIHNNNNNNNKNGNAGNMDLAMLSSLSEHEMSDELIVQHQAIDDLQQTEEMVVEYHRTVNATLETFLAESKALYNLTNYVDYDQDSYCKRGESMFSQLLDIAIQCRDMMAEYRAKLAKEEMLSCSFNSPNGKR
Test: co-IP

B1: Alms1a (protein, UniProt Q5BI31 1-1322)
chain: MRAKRGAVGKVMMSGSRHNKLAESSRVPPLAREYISAMATDRELDRFMALSSTASSGASGSTHSCALGSVPPPGCASMEHESRPESGHRRRTKSSDHRSPDERGEAKEQLRELSVSPPPSKHKISQFTSPKSEVTKTKPNEYTIIPIVLASSPSFRSVAVTQTMSQSAEDIRTPTKSPQMQNKKTQTPESVLKSHKRLEWDPSADVGYCKRAMSMSNISTLERSVLEDCSWRQPTQQRPEANLDGVQPLLAEEPSPMLDKPTPPLACSTFVNRSERTKSLNSGMESSLSSNKGDPRKKCQRKSRRQDSEVSSCQTDCRSSSQKESTQGSSEAKDIRGNFTTEGTQCSYNRNDTEIDSIMEEEESIDRRKKDDLRISSRVQDPQISSRRPSVSSSRRESLSSYRRDDSRLNSPNSSRLGSEVSSRVESSRSSSRRESQTNSVYGSLSASSFDYHMHMAQEVEVLKHNQRRQQEMEVEPKKQLEKEQHQNDMQQGEPKGRELKDKNHHSGREQQEIQPLMRDQRKAEQRHEKDHQLEREQQGIQQLSKGQRKAKKREKEREQERQYTAAQFEKIRSNRRHVNKENQKPENPVVNPSTGVTASTSTTSLDVGSGSRPGGELDLGIDLLCSLVKSRSLSQGQKKKLVRDIARRISCLELTESSTSSRSLSSSSKEQLKVPTGSLQQVAATNTNQSNARSSSKAERIAPPVPAPRKRAAIGSSSPLPESVSYSGSTSGSGEVITQKTNIPNRNASTDADIEPLDLQDWLNPMTLSEIEFEERLKGGTDSERRRQLHWVKTEINRMQEFKNLLENISLPSKSQKKANTESATAAQIPSSMRCMGDQKERPDKEYLLRQEMSAEAESKEMENSETTTTPPPPVRIESVGVNVTNSDPSTLPAPPPTQPPPPPPHLNQRNLQNRKKMATPLLVSGSSTSGGGRSESVCSFVQQRQRQFREHYQNQQQQQFVLLQQQKLYQLQKQLNQQKDILIQRQQHCGQCAQCGHQRTCIHQQNCPRRQQEAEEQPDEREQYMQMQYAQAAGSAYATPHQSGSSGADKNEAIYYQVVNSQGVASYVQATMVSTETQNEASATGGAGGSAITRSTTTTTNSSSSMMCISSDMSVPMGMMNTCETTTTTTTHQYDDVACQRVRRGHKETTMNAESMQRQTLQVRPRAISYVIQFTPTGSSEVIEKPPSLQDQLQLARPEFCANAKQRKAILNEMQMIRNARRQELDNVLSQSTSMEALNRHLEQLPPPANTRVRLFTTREMKAITSKRCKNLPEVLAAQSRQEEEQRRRSNRLMRDVFNKRLKSRVASGQISLNHSMAIM
binding: binds
